# This is one part of the list.
# Protein sequences, listed by entry. Tags and fused reporters are not part of them. Lines headed by an entry give the natural chain unless they say otherwise; changes in a name come on top.
# UniProt O43823: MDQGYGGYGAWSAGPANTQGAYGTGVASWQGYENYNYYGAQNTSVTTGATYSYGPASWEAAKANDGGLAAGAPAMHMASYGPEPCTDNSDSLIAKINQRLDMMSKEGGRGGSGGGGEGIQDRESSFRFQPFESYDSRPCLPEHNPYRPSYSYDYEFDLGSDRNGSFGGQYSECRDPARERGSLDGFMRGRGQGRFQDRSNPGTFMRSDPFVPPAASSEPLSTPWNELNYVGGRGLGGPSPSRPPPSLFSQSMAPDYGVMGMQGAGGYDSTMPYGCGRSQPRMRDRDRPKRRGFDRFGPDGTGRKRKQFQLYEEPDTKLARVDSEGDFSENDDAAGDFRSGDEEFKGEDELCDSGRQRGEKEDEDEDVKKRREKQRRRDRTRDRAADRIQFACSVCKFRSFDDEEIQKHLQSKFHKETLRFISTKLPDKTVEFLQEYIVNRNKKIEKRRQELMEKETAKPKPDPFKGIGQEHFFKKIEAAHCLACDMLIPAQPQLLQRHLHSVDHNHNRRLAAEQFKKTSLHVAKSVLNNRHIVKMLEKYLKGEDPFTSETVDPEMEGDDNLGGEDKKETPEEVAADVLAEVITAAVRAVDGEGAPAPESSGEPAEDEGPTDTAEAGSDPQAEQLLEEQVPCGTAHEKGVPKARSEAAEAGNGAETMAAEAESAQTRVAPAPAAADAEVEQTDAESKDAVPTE
# UniProt P24666: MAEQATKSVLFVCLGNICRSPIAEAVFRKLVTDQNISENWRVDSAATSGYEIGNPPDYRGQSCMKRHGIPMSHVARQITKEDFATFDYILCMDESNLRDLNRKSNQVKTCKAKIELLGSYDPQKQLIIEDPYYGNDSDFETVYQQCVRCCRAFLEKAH
# UniProt P55265: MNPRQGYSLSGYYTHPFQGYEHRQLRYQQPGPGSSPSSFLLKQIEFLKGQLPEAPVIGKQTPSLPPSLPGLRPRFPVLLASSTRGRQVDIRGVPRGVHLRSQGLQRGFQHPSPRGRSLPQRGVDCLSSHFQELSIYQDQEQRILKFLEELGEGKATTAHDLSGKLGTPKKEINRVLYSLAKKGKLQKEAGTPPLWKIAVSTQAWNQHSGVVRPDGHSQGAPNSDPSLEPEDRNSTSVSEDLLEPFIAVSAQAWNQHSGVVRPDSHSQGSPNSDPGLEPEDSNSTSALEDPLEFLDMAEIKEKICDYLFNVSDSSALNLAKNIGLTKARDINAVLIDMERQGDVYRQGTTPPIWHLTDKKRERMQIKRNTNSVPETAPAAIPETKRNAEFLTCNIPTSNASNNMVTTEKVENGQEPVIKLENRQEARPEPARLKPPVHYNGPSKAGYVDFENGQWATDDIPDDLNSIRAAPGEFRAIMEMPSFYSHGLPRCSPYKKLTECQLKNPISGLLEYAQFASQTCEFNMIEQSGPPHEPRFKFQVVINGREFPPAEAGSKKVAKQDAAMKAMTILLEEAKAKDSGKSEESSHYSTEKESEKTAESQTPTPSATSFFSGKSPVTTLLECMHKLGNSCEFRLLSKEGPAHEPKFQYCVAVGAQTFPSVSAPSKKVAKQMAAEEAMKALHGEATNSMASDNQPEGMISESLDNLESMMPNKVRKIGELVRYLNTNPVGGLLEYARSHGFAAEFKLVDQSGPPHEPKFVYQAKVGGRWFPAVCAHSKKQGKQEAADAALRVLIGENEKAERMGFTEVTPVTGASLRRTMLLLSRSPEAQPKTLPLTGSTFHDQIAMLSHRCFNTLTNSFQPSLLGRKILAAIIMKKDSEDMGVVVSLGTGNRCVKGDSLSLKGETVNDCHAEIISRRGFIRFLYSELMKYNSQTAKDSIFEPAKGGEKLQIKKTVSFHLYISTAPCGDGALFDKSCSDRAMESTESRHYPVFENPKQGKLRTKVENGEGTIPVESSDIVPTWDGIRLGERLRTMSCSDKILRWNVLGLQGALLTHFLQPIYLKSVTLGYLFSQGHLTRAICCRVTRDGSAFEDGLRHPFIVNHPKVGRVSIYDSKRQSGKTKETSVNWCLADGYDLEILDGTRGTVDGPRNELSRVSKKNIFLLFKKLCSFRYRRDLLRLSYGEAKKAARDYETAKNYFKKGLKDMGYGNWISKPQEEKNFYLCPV
# UniProt Q7Z6V5: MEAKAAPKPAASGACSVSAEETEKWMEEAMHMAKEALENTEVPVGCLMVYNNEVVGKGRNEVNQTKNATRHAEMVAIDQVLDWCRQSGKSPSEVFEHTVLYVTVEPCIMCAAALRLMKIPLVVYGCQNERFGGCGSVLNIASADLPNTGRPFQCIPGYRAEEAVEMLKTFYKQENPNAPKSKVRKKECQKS
# UniProt Q96SZ5, whole entry, looked up: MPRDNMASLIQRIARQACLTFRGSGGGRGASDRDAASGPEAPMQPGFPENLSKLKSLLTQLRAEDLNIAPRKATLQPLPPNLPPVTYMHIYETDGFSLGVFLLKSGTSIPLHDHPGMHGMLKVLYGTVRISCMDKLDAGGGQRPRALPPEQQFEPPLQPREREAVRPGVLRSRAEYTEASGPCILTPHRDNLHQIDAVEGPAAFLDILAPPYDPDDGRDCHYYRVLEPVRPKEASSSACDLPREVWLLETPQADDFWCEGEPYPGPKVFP
# UniProt Q9UKV8, whole entry, looked up: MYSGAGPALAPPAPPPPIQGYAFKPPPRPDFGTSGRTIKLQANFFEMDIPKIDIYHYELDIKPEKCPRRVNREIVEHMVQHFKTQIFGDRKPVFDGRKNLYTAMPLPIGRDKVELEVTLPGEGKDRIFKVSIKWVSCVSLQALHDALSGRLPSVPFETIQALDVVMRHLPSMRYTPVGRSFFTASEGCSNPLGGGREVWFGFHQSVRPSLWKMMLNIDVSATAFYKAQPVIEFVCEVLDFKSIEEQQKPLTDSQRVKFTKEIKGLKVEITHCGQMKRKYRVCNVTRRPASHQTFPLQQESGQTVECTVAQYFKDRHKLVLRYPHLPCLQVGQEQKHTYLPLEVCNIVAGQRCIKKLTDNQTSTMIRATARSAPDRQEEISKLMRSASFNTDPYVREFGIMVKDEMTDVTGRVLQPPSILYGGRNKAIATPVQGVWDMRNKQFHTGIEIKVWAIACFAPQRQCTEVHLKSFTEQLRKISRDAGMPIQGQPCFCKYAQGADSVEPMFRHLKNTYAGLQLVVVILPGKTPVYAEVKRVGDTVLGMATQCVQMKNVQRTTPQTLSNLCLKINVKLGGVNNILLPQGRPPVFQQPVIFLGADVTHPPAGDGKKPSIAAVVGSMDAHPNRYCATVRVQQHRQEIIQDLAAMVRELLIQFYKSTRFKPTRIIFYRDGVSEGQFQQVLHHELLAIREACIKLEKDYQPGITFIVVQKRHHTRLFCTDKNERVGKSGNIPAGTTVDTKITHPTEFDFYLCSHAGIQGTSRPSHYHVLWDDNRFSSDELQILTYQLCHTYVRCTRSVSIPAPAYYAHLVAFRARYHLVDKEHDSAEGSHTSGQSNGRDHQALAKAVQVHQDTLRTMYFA
# UniProt Q6RW13: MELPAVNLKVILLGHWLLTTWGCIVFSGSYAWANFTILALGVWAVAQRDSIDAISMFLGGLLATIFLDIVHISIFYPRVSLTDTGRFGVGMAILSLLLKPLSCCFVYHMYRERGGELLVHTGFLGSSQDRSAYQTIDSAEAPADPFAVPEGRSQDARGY
# UniProt Q6ULP2: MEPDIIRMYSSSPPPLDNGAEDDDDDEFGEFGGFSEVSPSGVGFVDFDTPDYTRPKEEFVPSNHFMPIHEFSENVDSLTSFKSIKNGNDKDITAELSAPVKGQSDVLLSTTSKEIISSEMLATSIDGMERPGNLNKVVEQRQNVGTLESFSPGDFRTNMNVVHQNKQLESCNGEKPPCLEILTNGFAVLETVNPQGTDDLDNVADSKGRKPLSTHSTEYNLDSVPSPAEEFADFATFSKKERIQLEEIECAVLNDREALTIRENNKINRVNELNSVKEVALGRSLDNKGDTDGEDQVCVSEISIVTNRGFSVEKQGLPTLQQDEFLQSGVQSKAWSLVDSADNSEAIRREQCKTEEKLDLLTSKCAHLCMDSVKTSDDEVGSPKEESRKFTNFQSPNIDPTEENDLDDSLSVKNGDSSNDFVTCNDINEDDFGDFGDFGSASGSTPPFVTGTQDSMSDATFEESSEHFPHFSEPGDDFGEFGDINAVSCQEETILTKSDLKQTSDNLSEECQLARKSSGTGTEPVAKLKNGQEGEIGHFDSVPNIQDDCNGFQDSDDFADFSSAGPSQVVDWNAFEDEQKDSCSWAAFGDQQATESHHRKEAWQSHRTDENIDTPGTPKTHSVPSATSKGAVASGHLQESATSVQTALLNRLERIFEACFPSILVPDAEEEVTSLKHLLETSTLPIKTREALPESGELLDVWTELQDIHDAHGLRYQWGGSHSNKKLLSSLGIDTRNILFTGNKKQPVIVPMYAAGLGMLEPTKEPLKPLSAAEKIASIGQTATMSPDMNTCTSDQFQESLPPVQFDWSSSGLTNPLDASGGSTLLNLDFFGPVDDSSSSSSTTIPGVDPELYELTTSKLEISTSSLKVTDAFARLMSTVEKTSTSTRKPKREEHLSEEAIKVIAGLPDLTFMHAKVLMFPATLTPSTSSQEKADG
# UniProt P07311: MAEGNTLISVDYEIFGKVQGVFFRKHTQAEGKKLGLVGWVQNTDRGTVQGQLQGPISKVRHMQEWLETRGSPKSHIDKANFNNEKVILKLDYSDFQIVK
# UniProt Q12904: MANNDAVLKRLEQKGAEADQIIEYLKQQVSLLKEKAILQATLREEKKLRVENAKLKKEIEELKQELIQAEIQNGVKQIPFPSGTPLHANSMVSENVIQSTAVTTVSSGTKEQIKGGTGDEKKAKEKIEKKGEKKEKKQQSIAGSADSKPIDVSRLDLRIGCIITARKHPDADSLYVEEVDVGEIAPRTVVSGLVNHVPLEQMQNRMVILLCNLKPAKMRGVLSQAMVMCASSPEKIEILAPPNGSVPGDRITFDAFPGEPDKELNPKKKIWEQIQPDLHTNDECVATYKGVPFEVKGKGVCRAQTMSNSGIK
# UniProt Q96P47: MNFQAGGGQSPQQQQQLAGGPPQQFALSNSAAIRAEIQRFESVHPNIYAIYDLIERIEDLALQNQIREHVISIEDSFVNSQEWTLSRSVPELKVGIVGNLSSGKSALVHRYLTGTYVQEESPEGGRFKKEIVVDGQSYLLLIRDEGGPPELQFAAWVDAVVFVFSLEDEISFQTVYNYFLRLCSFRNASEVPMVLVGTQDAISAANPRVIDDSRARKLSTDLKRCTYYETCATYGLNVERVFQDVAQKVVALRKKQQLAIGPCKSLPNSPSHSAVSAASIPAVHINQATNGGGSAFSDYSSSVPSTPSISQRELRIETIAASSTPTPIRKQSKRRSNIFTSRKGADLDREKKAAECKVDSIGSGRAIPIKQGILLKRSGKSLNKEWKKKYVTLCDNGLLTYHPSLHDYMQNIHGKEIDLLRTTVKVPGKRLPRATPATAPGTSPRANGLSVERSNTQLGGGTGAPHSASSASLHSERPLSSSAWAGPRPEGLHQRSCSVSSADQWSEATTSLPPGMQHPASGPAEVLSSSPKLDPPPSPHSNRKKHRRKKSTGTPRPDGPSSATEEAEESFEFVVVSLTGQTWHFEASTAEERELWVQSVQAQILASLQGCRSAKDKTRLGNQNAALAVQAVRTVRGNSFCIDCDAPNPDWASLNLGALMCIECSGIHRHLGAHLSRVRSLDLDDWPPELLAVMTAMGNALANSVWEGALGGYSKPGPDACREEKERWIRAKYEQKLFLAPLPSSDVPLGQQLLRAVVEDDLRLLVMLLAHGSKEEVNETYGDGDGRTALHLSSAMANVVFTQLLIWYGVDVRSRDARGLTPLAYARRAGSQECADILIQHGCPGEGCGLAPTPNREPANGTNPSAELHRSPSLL
# UniProt Q9ULX6: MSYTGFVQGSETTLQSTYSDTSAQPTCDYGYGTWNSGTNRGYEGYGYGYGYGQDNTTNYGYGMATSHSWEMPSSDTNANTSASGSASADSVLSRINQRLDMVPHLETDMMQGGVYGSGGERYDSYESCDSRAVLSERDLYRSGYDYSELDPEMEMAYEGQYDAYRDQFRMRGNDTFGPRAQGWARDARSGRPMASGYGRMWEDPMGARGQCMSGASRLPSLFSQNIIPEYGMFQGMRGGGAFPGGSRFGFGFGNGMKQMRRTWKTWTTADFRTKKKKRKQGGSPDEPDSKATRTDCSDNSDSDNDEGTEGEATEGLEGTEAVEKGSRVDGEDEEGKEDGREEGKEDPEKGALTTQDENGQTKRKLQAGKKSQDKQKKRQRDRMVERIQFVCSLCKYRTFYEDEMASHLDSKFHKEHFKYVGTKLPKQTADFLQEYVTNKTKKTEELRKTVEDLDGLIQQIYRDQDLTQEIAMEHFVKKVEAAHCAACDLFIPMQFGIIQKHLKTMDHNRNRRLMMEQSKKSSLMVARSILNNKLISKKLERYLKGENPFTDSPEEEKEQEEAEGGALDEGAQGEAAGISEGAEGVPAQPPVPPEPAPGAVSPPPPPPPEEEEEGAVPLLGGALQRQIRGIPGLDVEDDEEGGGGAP
# Columns and labels:
# Test in all cases: log2 fold change, soluble protein after heating vs DMSO (PISA); higher = thermal stabilisation; K562 lysate, 10 uM; active = over 0.2 and 3.5 SD of the protein, either way, in both replicates (recomputed)
# [1] = compound: C#Cc1cccc(Nc2ncnc3cc(OCCOC)c(OCCOC)cc23)c1 [erlotinib]
# Outline: (§1)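 Quantification was by TMTpro 16plex LC-MS/MS with equalised channel sums, applied to the supernatant after 21,000xg for 90 min. Samples were crude K562 extract at 1 mg/mL protein in PBS pH 7.4 with 1 mM MgCl2, treated with 10 μM compound for 30 min, heated for 3 min across 48°C-58°C, pooled and brought to 0.5% NP-40 at 4°C. Values are log-two fold changes in thermal stability relative to solvent controls, from duplicates.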
# [2] = compound: C/C(=N\NC(=O)C1=CC(=CC=C1)S(=O)(=O)N2CCOCC2)/C3=C(C=CC(=C3)Cl)O
# Outline: as §1
# [3] = compound: C1=CC(=CC=C1C2=NC3=C(N2)C=C(C=C3)C(=O)N)OC4=CC=C(C=C4)Cl
# Outline: as §1
# [4] = compound: C1=CC2=C(C=CC(=C2)/C=C\3/C(=O)NC(=NCC4=CC=CS4)S3)N=C1
# Outline: as §1
# [5] = compound: C1=CC2=NC=CN=C2C=C1/C=C/3\C(=O)NC(=O)S3
# Outline: as §1
# [6] = compound: C1=CC=C(C=C1)C2=NC(=C(N2)C3=CC=NC=C3)C4=CC(=C(C=C4)Cl)O
# Outline: as §1
# [7] = compound: C1=CC=C2C(=C1)C3=NNC4=CC=CC(=C43)C2=O
# Outline: as §1
# [8] = compound: C1CCN(C1)C(=O)NC2=CC=CC(=C2)NC3=NC=C(C(=N3)NCCC4=CN=CN4)Br
# Outline: as §1
# [9] = compound: C1CN(CCC1(CC2=CC=C(C=C2)Cl)N)C3=NC=NC4=C3C=CN4
# Outline: as §1
# [10] = compound: C1COCCN1CCN2C3=CC=CC=C3N=C2NC(=O)C4=CC(=CC=C4)[N+](=O)[O-] [IRAK-1-4 Inhibitor I]
# Outline: as §1
# [11] = compound: C=CC(=O)N1CCC[C@@H](n2nc(-c3ccc(Oc4ccccc4)cc3)c3c(N)ncnc32)C1 [ibrutinib]
# Outline: as §1
# [12] = compound: CC(=O)c1cnc2ccc(-c3cc(Cl)c(O)c(Cl)c3)nc2c1N[C@H]1CC[C@H](CN(C)C)CC1
# Outline: as §1
# [13] = compound: CC(C)(C)Cn1c(N)nc2ccc(-c3[nH]c(C(C)(C)C)nc3-c3ccc(F)cc3)nc21 [ralimetinib]
# Outline: as §1
# [14] = compound: CC(C)(O)CC(=O)NCCn1ccc2ncnc(Nc3ccc(Oc4cccc(C(F)(F)F)c4)c(Cl)c3)c21
# Outline: as §1
# [15] = compound: CC(C)C1=C2N=C(C=C(N2N=C1)NCC3=CC=CC=C3)NCCCCCCN
# Outline: as §1
# [16] = compound: CC1=C(C(CC(=O)N1)C2=CC=C(C=C2)C(F)(F)F)C(=O)NC3=C(C=C4C(=C3)C=NN4)F
# Outline: as §1
# [17] = compound: CC1=C(C2=C(C=C1)C(=O)C3=CC=CC=C3N2CCCN)C
# Outline: as §1
# [18] = compound: CC1=C(C=C(C=C1)NC(=O)C2=CC(=CC=C2)C(C)(C)C#N)NC3=CC4=C(C=C3)N=CN(C4=O)C
# Outline: as §1
# [19] = compound: CC1=C(C=C(C=C1)NC(=O)C2=CC(=CC=C2)N(C)C)NC(=O)C3=CC=C(C=C3)O
# Outline: as §1
# [20] = compound: CC1=CC=C(C=C1)SC2=C3C=C(SC3=CN=C2)C(=O)N
# Outline: as §1
Target,log2 fold change [1],log2 fold change [2],log2 fold change [3],log2 fold change [4],log2 fold change [5],log2 fold change [6],log2 fold change [7],log2 fold change [8],log2 fold change [9],log2 fold change [10],log2 fold change [11],log2 fold change [12],log2 fold change [13],log2 fold change [14],log2 fold change [15],log2 fold change [16],log2 fold change [17],log2 fold change [18],log2 fold change [19],log2 fold change [20]
AKAP8 (UniProt O43823),inactive: -0.015,inactive: 0.002,inactive: 0.038,inactive: -0.005,inactive: -0.04,inactive: 0.045,inactive: -0.047,inactive: 0.044,inactive: 0,inactive: 0.089,inactive: 0,inactive: -0.019,inactive: -0.039,inactive: -0.084,inactive: -0.009,inactive: 0.076,inactive: -0.056,inactive: -0.158,inactive: 0.016,inactive: -0.03
ADAM9 (UniProt Q13443),inactive: -0.034,inactive: 0.039,inactive: 0.013,inactive: -0.058,inactive: -0.015,inactive: -0.088,inactive: -0.089,inactive: -0.019,inactive: 0.031,inactive: -0.012,inactive: -0.015,inactive: 0.046,inactive: 0.019,inactive: 0.031,inactive: -0.011,inactive: 0.03,inactive: 0.027,inactive: -0.074,inactive: -0.017,inactive: -0.015
ACTBL2 (UniProt Q562R1),inactive: -0.037,inactive: -0.163,inactive: 0.02,inactive: 0.043,inactive: 0.118,inactive: 0.004,inactive: 0.024,inactive: 0.064,inactive: 0.109,inactive: -0.006,inactive: 0.001,inactive: -0.016,inactive: 0.006,inactive: 0.082,inactive: -0.034,inactive: 0.086,inactive: 0.069,inactive: -0.043,inactive: 0.017,inactive: 0.123
ACP1 isoform 2 (UniProt P24666),inactive: 0.038,inactive: -0.008,inactive: -0.004,inactive: -0.033,inactive: -0.014,inactive: 0.006,inactive: -0.015,inactive: -0.025,inactive: 0.087,inactive: 0.055,inactive: -0.041,inactive: 0.012,inactive: 0.001,inactive: -0.031,inactive: 0.01,inactive: -0.085,inactive: -0.001,inactive: 0.015,inactive: 0.023,inactive: 0.015
AGK (UniProt Q53H12),inactive: 0.025,inactive: 0.005,inactive: -0.111,inactive: 0.019,inactive: -0.015,inactive: -0.022,inactive: 0.033,inactive: -0.014,inactive: -0.006,inactive: -0.01,inactive: -0.009,inactive: -0.005,inactive: -0.024,inactive: -0.062,inactive: 0.007,inactive: -0.013,inactive: 0.009,inactive: 0.003,inactive: 0.023,inactive: 0.041
ADAR isoform 4 (UniProt P55265),inactive: -0.029,inactive: -0.114,inactive: -0.06,inactive: -0.031,inactive: 0.002,inactive: 0.001,inactive: -0.029,inactive: 0.002,inactive: -0.017,inactive: 0,inactive: 0.152,inactive: -0.025,inactive: 0.029,inactive: -0.019,inactive: -0.03,inactive: 0.018,inactive: 0.016,inactive: -0.002,inactive: 0.015,inactive: -0.021
ADAT2 (UniProt Q7Z6V5),inactive: 0.006,inactive: 0.146,inactive: 0.016,inactive: 0.003,inactive: 0.03,inactive: 0.095,inactive: 0.049,inactive: -0.023,inactive: -0.049,inactive: 0.031,inactive: -0.069,inactive: 0.002,inactive: 0.01,inactive: -0.045,inactive: -0.014,inactive: -0.023,inactive: -0.034,inactive: 0.043,inactive: -0.027,inactive: -0.028
ADO (UniProt Q96SZ5),inactive: 0.013,inactive: -0.004,inactive: 0,inactive: -0.019,inactive: -0.013,inactive: 0.015,inactive: 0.015,inactive: -0.006,inactive: 0.004,inactive: 0.011,inactive: 0.032,inactive: 0.002,inactive: -0.035,inactive: 0.01,inactive: 0.053,inactive: 0.01,inactive: -0.041,inactive: 0.032,inactive: -0.012,inactive: -0.034
AGO2 (UniProt Q9UKV8),inactive: -0.03,inactive: -0.024,inactive: -0.003,inactive: -0.001,inactive: -0.004,inactive: 0.003,inactive: -0.011,inactive: 0.006,inactive: -0.01,inactive: 0.01,inactive: 0,inactive: -0.017,inactive: 0.016,inactive: -0.018,inactive: -0.03,inactive: 0.003,inactive: -0.017,inactive: -0.023,inactive: -0.012,inactive: -0.019
AGTRAP (UniProt Q6RW13),inactive: -0.002,inactive: 0.068,inactive: 0.005,inactive: 0.081,inactive: -0.055,inactive: 0.006,inactive: 0.009,inactive: -0.059,inactive: 0.012,inactive: 0.027,inactive: 0.01,inactive: -0.038,inactive: 0.073,inactive: -0.021,inactive: -0.016,inactive: -0.033,inactive: -0.024,inactive: -0.005,inactive: 0,inactive: 0.024
AFTPH isoform 9 (UniProt Q6ULP2),inactive: -0.016,inactive: -0.042,inactive: 0.024,inactive: 0.01,inactive: 0.017,inactive: -0.014,inactive: 0.012,inactive: 0.042,inactive: -0.049,inactive: -0.009,inactive: 0.002,inactive: -0.003,inactive: 0.06,inactive: 0.021,inactive: -0.048,inactive: 0.103,inactive: 0.002,inactive: -0.031,inactive: -0.02,inactive: -0.023
ACYP1 (UniProt P07311),inactive: -0.032,inactive: 0.028,inactive: -0.007,inactive: -0.02,inactive: -0.008,inactive: -0.017,inactive: -0.01,inactive: 0.024,inactive: -0.004,inactive: 0.013,inactive: 0.056,inactive: 0.027,inactive: 0,inactive: -0.024,inactive: -0.011,inactive: -0.021,inactive: 0.015,inactive: -0.013,inactive: -0.024,inactive: 0.021
AIMP1 isoform 2 (UniProt Q12904),inactive: 0.044,inactive: 0.013,inactive: -0.028,inactive: 0.001,inactive: -0.03,inactive: 0.021,inactive: -0.025,inactive: -0.02,inactive: 0.02,inactive: 0.01,inactive: 0.009,inactive: 0.012,inactive: 0.026,inactive: 0.018,inactive: 0.022,inactive: -0.026,inactive: 0.005,inactive: -0.014,inactive: -0.006,inactive: 0.006
AGAP3 isoform 4 (UniProt Q96P47),inactive: 0.02,inactive: -0.038,inactive: 0.036,inactive: 0.04,inactive: -0.016,inactive: 0.014,inactive: -0.007,inactive: 0.042,inactive: -0.046,inactive: 0.013,inactive: -0.013,inactive: 0.003,inactive: 0.014,inactive: -0.007,inactive: 0.005,inactive: -0.069,inactive: 0.006,inactive: 0.031,inactive: 0.019,inactive: 0.012
AKAP8L (UniProt Q9ULX6),inactive: 0.061,inactive: 0.093,inactive: 0.032,inactive: 0.002,inactive: 0.017,inactive: 0,inactive: -0.022,inactive: 0.029,inactive: -0.032,inactive: -0.002,inactive: 0,inactive: -0.046,inactive: 0.002,inactive: -0.019,inactive: 0.009,inactive: -0.02,inactive: 0.003,active: -0.271,inactive: 0.046,inactive: 0.032
AGPS (UniProt O00116),inactive: 0.033,inactive: -0.086,inactive: -0.014,inactive: 0.037,inactive: 0.019,inactive: -0.039,inactive: -0.082,inactive: -0.034,inactive: 0.015,inactive: 0.023,inactive: 0.01,inactive: -0.004,inactive: -0.013,inactive: -0.07,inactive: -0.065,inactive: 0.012,inactive: 0.025,inactive: -0.177,inactive: -0.005,inactive: -0.02

# Exported with bars between the fields: part of the list above.
Target | log2 fold change [1] | log2 fold change [2] | log2 fold change [3] | log2 fold change [4] | log2 fold change [5] | log2 fold change [6] | log2 fold change [7] | log2 fold change [8] | log2 fold change [9] | log2 fold change [10] | log2 fold change [11] | log2 fold change [12] | log2 fold change [13] | log2 fold change [14] | log2 fold change [15] | log2 fold change [16] | log2 fold change [17] | log2 fold change [18] | log2 fold change [19] | log2 fold change [20]
AFTPH isoform 9 (UniProt Q6ULP2) | inactive: -0.016 | inactive: -0.042 | inactive: 0.024 | inactive: 0.01 | inactive: 0.017 | inactive: -0.014 | inactive: 0.012 | inactive: 0.042 | inactive: -0.049 | inactive: -0.009 | inactive: 0.002 | inactive: -0.003 | inactive: 0.06 | inactive: 0.021 | inactive: -0.048 | inactive: 0.103 | inactive: 0.002 | inactive: -0.031 | inactive: -0.02 | inactive: -0.023
ACYP1 (UniProt P07311) | inactive: -0.032 | inactive: 0.028 | inactive: -0.007 | inactive: -0.02 | inactive: -0.008 | inactive: -0.017 | inactive: -0.01 | inactive: 0.024 | inactive: -0.004 | inactive: 0.013 | inactive: 0.056 | inactive: 0.027 | inactive: 0 | inactive: -0.024 | inactive: -0.011 | inactive: -0.021 | inactive: 0.015 | inactive: -0.013 | inactive: -0.024 | inactive: 0.021

# Reference: the supplement of paper PMC10849652
